# Measurements: PubChem BioAssay AID504834 (National Center for Advancing Translational Sciences (NCATS), 2011)
# Several values for one entry are separate records, joined by “and”; a condition that tells them apart may be missing. Equal values may be shown once. Screen size: about 320,000 compounds; about 22,000 (6.9%) were called active. This list was built around the results that the source calls inconclusive (neither active nor inactive); the mix of calls is not that of the screen. The call rests on the fitted dose curve; in most records, active means well fitted inhibition curve with a large enough effect; inconclusive means small, poorly fitted or top-dose-only effect, or another doubt; inactive means no such curve, though single readings can be large or run the other way. A potency beside an inconclusive call is a rough fit, not a confirmed value.
# Test: Primary qHTS for delayed death inhibitors of the malarial parasite plastid, 96 hour incubation
# Conditions: P. falciparum luciferase reporter growth; series mostly up to 28.7 µM
# Method in brief: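 Delayed-death screen, second-generation endpoint: infected erythrocytes, 2% hematocrit, 0.05% parasitemia final; 96 hours at 37 C, 5% CO2; luciferase detection reagent; luminescence decrease equals reduced growth.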
# Potency means the concentration at half of the fitted maximal effect.
row,Structure (SMILES),Potency
1,Cc1csc(/C(=N\O)c2csc(C)n2)n1,"inconclusive: 1.47 µM [inhibitor, full curve, poor fit]"
2,CCN(CC)C(=O)Cc1ccccc1,inactive
3,CN(C)CCNC(=O)COc1cccc(Cl)c1,"inconclusive: 13.1 µM [inhibitor, single point]"
4,CC(=O)N(c1nc(CCl)cs1)c1c(C)cc(C)cc1C,"inconclusive: 2.94 µM [inhibitor, full curve, poor fit]"
5,CCCN(CCC)CCNC(=O)C1c2ccccc2C(=O)N2CCc3ccccc3C12 (configuration not stated),"inconclusive: 18.5 µM [inhibitor, single point]"
6,Cc1ccc(C)c(OC(=O)c2cccnc2Cl)c1C,inactive
7,COc1ccc(NC(=O)CNC(=O)c2nn(-c3ccc(OC)c(OC)c3)c(=O)c3ccccc23)c(OC)c1,inactive
8,O=C([O-])c1ccc(-[n+]2c(-c3ccccc3)cc(-c3ccccc3)cc2-c2ccccc2)cc1,"inconclusive: 18.5 µM [inhibitor, single point]"
9,CCOC(=O)/C(N=O)=C(\O)C1CCN(C(=O)OCC)CC1,active: 13.1 µM
10,CN(CC(=O)N1CCCCC1)S(=O)(=O)c1cccc2nsnc12,"inconclusive: 18.5 µM [inhibitor, single point]"
11,CCCCCCN1C(=O)C(O)=C(C(C)=O)C1c1ccccc1[N+](=O)[O-] (configuration not stated),"inconclusive: 18.5 µM [inhibitor, single point]"
12,COc1cc(NC(=O)C(C)N2CCN(C(=O)C3CC3)CC2)cc(OC)c1 (configuration not stated),"inconclusive: 10.4 µM [inhibitor, single point]"
13,CCOc1ccc(N(C(C)C(=O)N/N=C(\C)c2cccc(NC(=O)c3ccccc3)c2)S(C)(=O)=O)cc1 (configuration not stated),"inconclusive: 10.4 µM [inhibitor, single point]"
14,O=C(N=Nc1c(O)[nH]c(=O)[nH]c1=O)C1COc2ccccc2O1 (configuration not stated),"inconclusive: 5.22 µM [inhibitor, partial curve]"
15,Cc1cc(C2CCCCC2)n(O)c(=O)c1,active: 361 nM and active: 465 nM
16,CC(Sc1ccc(S(=O)(=O)N2CCOCC2)cn1)C(=O)Nc1ccc(Cl)cc1Cl (configuration not stated),"inconclusive: 18.5 µM [inhibitor, single point]"
17,Cc1cccc(NC(=O)CNC(=O)CSc2nnc(C(F)(F)F)n2C)c1C,inactive
18,CCOC(=O)[C@@H]1[C@H]2COc3ccc(Br)cc3[C@@H]2N2C(=O)N(c3cccc(C)c3)C(=O)[C@]12C,"inconclusive: 0.0262 µM [inhibitor, full curve, poor fit]"
19,CCC(CC)c1nnc(NC(=O)c2ccc3c(c2)OCO3)s1,inactive
20,COC(=O)c1ccc(C(=O)OC)c(NC(=O)COC(=O)CCOc2ccc(C)cc2)c1,inactive
21,CCOc1ccc(CNCc2ccc(C(=O)O)cc2)cc1OC,"inconclusive: 2.33 µM [inhibitor, partial curve, poor fit]"
22,CCn1cc(CCC(=O)NCc2ccccc2OC)c2ccccc21,"inconclusive: 5.22 µM [inhibitor, partial curve]"
23,CC(=O)NS(=O)(=O)c1ccc(N=NN2CCCCC2)cc1,"inconclusive: 18.5 µM [inhibitor, single point]"

row,Structure (SMILES),Potency
1,COC(=O)C1CCCCN1C(=O)CCc1nnc(CCc2c[nH]c3ccccc23)o1 (configuration not stated),"inconclusive: 10.4 µM [inhibitor, single point]"
2,C[C@H](NC(=O)Nc1cccc(Br)c1)C(=O)O,inactive
3,COc1ccccc1C(=O)OCCN=C1NS(=O)(=O)c2ccccc21,"inconclusive: 2.62 µM [inhibitor, full curve, poor fit]"
4,COc1ccccc1N1CCN(/N=C/c2cc(OC)c(OC(C)=O)c(OC)c2)CC1,"inconclusive: 20.8 µM [inhibitor, partial curve, poor fit]"
5,Oc1ccccc1N=Cc1sc2ccccc2c1Cl,"inconclusive: 3.7 µM [inhibitor, partial curve, poor fit]"
6,CCOc1ccc(OCCN2C(=O)c3ccccc3C2=O)cc1,active: 13.1 µM
7,Cc1cc(/C=C2/NC(=O)NC2=O)c(C)n1C,active: 4.65 µM
8,O=C(CCN1C(=O)C2CC=CCC2C1=O)Nc1cccc(S(=O)(=O)N2CCCCC2)c1 (configuration not stated),"inconclusive: 18.5 µM [inhibitor, single point]"
9,O=C(CCc1nc2sc3c(c2c(=O)[nH]1)CCCC3)Nc1ccccc1Cl,inactive
10,Cc1ccc2oc(=O)c3cnn(CC(=O)N4CCN(c5ccccn5)CC4)c3c2c1,"inconclusive: 14.7 µM [inhibitor, partial curve, poor fit]"
11,COc1cc(C(=O)Nc2nc3ccc(S(C)(=O)=O)cc3s2)cc(OC)c1C,active: 7.38 µM
12,CCn1c(/C=C/c2ccccc2)nc2ccccc2c1=O,inactive
13,Cn1c(SCC(=O)N2CCCc3ccccc32)nnc1-c1ccccc1,"inconclusive: 4.15 µM [inhibitor, partial curve]"
14,Cc1ccc2[nH]c(=O)c(CN(Cc3cccnc3)Cc3nnnn3CC3CCCO3)cc2c1 (configuration not stated),"inconclusive: 13.1 µM [inhibitor, partial curve, poor fit]"
15,Cn1c(=O)[nH]c(=O)c2c1nc(N1CCN(CCO)CC1)n2Cc1ccccc1Cl,"inconclusive: 13.1 µM [inhibitor, single point]"
16,CCN(CC(=O)Nc1cccc(C#N)c1)CC(=O)Nc1cccc(OC)c1,"inconclusive: 1.17 µM [inhibitor, full curve]"
17,O=[N+]([O-])c1ccc(CSc2ccc(S(=O)(=O)N3CCOCC3)cn2)cc1,"inconclusive: 11.7 µM [inhibitor, single point]"
18,O=C(CC(=O)c1cc(Cl)ccc1O)c1ccccc1,"inconclusive: 8.28 µM [inhibitor, single point]"
19,CC1CCC(C(C)C)C(OC(=O)c2ccccc2O)C1 (configuration not stated),"inconclusive: 13.5 µM [inhibitor, partial curve, poor fit]"
20,NC(=O)c1nn(-c2ccccc2)nc1NC(=O)CSc1nnnn1-c1ccc(Cl)cc1,"inconclusive: 16.5 µM [inhibitor, single point]"
21,Cc1ccc(/C=C/C(=O)CCC(=O)O)cc1,inactive
22,Cc1ccc(C(C(=O)NC2CCCCC2)N(CC2CCCO2)C(=O)CNC(=O)c2cccs2)cc1 (configuration not stated),"inconclusive: 5.86 µM [inhibitor, partial curve, poor fit]"
23,CSCCC(NC(=O)COc1ccccc1)C(=O)N1CCN(c2ccccc2)CC1 (configuration not stated),"inconclusive: 18.5 µM [inhibitor, single point]"

# Some of the entries so far, with tabs:
row	Structure (SMILES)	Potency
20	NC(=O)c1nn(-c2ccccc2)nc1NC(=O)CSc1nnnn1-c1ccc(Cl)cc1	inconclusive: 16.5 µM [inhibitor, single point]
21	Cc1ccc(/C=C/C(=O)CCC(=O)O)cc1	inactive

# 2 records drawn at random from those above:
row,Structure (SMILES),Potency
6,CCOc1ccc(OCCN2C(=O)c3ccccc3C2=O)cc1,active: 13.1 µM
10,Cc1ccc2oc(=O)c3cnn(CC(=O)N4CCN(c5ccccn5)CC4)c3c2c1,"inconclusive: 14.7 µM [inhibitor, partial curve, poor fit]"

# Continuation:

row,Structure (SMILES),Potency
1,COc1ccc([N+](=O)[O-])cc1NCC(=O)c1ccc(C)cc1,inactive
2,Cc1cc(C)c(OCC(=O)Nc2ccccc2N2CCCCC2)c(C)c1,"inconclusive: 5.22 µM [inhibitor, partial curve, poor fit]"
3,CC(=O)Nc1ccc(S(=O)(=O)N2CCC(NC(=O)c3ccco3)CC2)cc1,"inconclusive: 11.7 µM [inhibitor, single point]"
4,Cc1cc([N+](=O)[O-])ccc1NC(=O)CN1C2CCC1CC(NC(=O)NC13CC4CC(CC(C4)C1)C3)C2 (configuration not stated),inactive
5,CCCn1c(=O)[nH]c(=O)c2c1nc(-c1ccc(OC)c(Br)c1)n2CCOC,"inconclusive: 11.7 µM [inhibitor, partial curve, poor fit]"
6,Cc1cc(-c2csc(NC(=O)C3=COCCO3)n2)c(C)n1C,"inconclusive: 18.5 µM [inhibitor, single point]"
7,Cc1ccc(S(=O)(=O)n2[nH]c(=O)c(CCO)c2C)cc1,"inconclusive: 18.5 µM [inhibitor, single point]"
8,COc1ccccc1C(=O)N/C(=C\c1cn(S(=O)(=O)N(C)C)c2ccccc12)C(=O)NCCN1CCOCC1,"inconclusive: 9.28 µM [inhibitor, partial curve]"
9,O=C(Nc1cc(S(=O)(=O)N2CCOCC2)ccc1OCC(F)(F)F)C1=COCCO1,"inconclusive: 5.22 µM [inhibitor, partial curve]"
10,O=C(O)/C=C/c1cn(-c2ccccc2)nc1-c1cc2ccccc2o1,"inconclusive: 18.5 µM [inhibitor, single point]"
11,Cc1cc(C(=O)OCC(=O)Nc2ccccc2F)c(C)o1,inactive
12,COc1ccc(CN(C)C(=O)c2ccc(OCC(=O)Nc3cccc(C(F)(F)F)c3)c(OC)c2)c(OC)c1,"inconclusive: 4.65 µM [inhibitor, partial curve]"
13,CC(=O)CCC(=O)N1CCCC(CNC(=O)c2ccc(-c3ccccc3)cc2)C1 (configuration not stated),"inconclusive: 0.0033 µM [inhibitor, full curve, poor fit]"
14,CCC(Oc1ccc(Br)cc1)C(=O)N1CCN(c2ncccn2)CC1 (configuration not stated),inactive
15,O=C(c1cccc(C(F)(F)F)c1)C1CCCN(Cc2cccn2-c2ncccn2)C1 (configuration not stated),inactive
16,Cc1cc(Nc2ccc(Cl)cc2)nc(-c2ccccc2O)n1,"inconclusive: 14.7 µM [inhibitor, single point]"
17,O=C(Nc1cc(S(=O)(=O)N2CCOCC2)ccc1N1CCCCC1)c1ccc(Cl)cc1,active: 8.28 µM
18,Cc1ccccc1/C=C/c1cc[n+](C)cc1,"inconclusive: 10.4 µM [inhibitor, single point]"
19,CCOC(=O)N1CCN(C(=O)c2ccccc2Oc2ccccc2)CC1,"inconclusive: 0.0657 µM [inhibitor, full curve, poor fit]"
20,COc1ccc(C2=C/C(=C\c3cccc(OC(C)=O)c3)C(=O)O2)cc1,"inconclusive: 14.7 µM [inhibitor, partial curve, poor fit]"
21,Cc1ccc(NC(=O)CCS(=O)(=O)c2cccc3nonc23)cc1Cl,inactive

# A stretch from the list above, as a working copy:
row,Structure (SMILES),Potency
2,Cc1cc(C)c(OCC(=O)Nc2ccccc2N2CCCCC2)c(C)c1,"inconclusive: 5.22 µM [inhibitor, partial curve, poor fit]"
3,CC(=O)Nc1ccc(S(=O)(=O)N2CCC(NC(=O)c3ccco3)CC2)cc1,"inconclusive: 11.7 µM [inhibitor, single point]"
